Among the data in article PMC10156792, “The structure and evolutionary diversity of the fungal E3-binding protein” (Communications Biology, 2023) are binding values, retold here.

No constants are given. Whether binding was seen depends on the method and setting. Some binding calls cover weakened binding; strength is not graded here.

The assay addresses N.crassa E2 in the native pyruvate dehydrogenase complex (N.crassa) (UniProt P20285). The assay can be described thus: cryo-EM structure; native PDC data EMPIAR-10489 reprocessed; symmetry-expanded consensus alignments only, C3 symmetry, 4.1 Å.

B1: N.crassa E2 in the native pyruvate dehydrogenase complex (enzyme, UniProt P20285 29-458)
chain: ASYPPHTVVKMPALSPTMTSGGIGAWQKKPGDKIEPGEVLVEIETDKAQMDFEFQEEGVLAKILKDSGEKDVAVGNPIAILVEEGTDVNAFKDFTLKDAGGETSPAVPKDEPKNESTASAPTPAPTPAPEPENTSFTGRFQTALEREPNALPAAKRLAREKGIDLRNVKGSGPGGKITEEDVKKALASAPAAGAAAAAYTDVPISGMRKTIAARLKESVTENPHFFVSTNLSVSKLLKLRQALNSSADGRYKLSVNDFLIKAMGIASKRVPTVNSSWRDGVIRQFETVDVSVAVATPNGLITPIVKGVEGKGLESISAAVKELAKKARDGKLKPEEYQGGSISISNMGMNPAVQSFTAIINPPQAAILAVGAPQKVAVPVENEDGTTGVSWDEQIIVTASFDHKVVDGAVGAEWIRELKKVIENPLELLL
B1: the binding result is on record as “binds”.
